Library screen at single concentrations

Protein sequences, listed by entry. Tags and fused reporters are not part of them.
UniProt I6X8D2, whole entry: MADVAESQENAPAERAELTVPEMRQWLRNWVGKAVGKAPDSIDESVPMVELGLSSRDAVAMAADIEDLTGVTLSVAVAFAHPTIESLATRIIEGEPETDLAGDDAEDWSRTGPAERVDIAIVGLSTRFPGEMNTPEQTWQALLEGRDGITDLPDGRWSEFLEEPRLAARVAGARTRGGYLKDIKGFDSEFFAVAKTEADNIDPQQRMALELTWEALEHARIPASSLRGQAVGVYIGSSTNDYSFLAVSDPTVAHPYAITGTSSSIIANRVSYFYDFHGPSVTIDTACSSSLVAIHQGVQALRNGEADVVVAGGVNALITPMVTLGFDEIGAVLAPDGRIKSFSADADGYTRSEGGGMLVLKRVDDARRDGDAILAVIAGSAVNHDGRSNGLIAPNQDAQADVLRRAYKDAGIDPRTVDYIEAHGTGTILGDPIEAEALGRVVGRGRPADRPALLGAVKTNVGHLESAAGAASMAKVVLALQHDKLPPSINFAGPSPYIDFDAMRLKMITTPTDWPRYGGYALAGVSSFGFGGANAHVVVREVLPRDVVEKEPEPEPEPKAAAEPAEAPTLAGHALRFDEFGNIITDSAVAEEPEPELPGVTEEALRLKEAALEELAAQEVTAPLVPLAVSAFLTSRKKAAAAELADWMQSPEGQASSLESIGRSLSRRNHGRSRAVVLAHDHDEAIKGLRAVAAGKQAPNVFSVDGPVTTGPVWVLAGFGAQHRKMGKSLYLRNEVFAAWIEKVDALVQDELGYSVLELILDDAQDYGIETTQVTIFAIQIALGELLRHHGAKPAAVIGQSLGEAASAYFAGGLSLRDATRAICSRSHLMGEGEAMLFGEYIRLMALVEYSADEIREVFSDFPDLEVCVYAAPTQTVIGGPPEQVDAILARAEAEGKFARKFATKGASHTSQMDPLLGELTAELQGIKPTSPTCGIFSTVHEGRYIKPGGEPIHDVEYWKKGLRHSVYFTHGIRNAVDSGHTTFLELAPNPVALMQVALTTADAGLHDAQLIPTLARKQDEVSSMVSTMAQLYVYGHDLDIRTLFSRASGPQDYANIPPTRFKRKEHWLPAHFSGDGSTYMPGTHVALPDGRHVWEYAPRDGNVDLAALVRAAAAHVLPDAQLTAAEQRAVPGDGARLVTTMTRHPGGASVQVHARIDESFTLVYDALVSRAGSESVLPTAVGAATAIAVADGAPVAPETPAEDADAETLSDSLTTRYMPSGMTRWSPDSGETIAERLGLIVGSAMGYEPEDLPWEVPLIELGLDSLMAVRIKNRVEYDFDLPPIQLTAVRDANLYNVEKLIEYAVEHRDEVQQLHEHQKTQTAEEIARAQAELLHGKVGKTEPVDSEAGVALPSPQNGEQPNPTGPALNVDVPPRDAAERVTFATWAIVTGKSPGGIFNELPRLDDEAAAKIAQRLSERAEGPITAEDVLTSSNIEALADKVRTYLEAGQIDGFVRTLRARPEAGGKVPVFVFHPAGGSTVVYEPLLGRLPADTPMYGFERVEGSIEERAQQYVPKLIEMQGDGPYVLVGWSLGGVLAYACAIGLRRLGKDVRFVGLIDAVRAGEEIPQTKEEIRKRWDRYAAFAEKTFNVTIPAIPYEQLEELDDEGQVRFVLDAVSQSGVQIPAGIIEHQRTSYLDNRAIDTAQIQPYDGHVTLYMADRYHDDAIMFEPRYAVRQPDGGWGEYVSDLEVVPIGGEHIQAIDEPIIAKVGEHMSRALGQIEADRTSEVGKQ
UniProt P9WNZ1, whole entry: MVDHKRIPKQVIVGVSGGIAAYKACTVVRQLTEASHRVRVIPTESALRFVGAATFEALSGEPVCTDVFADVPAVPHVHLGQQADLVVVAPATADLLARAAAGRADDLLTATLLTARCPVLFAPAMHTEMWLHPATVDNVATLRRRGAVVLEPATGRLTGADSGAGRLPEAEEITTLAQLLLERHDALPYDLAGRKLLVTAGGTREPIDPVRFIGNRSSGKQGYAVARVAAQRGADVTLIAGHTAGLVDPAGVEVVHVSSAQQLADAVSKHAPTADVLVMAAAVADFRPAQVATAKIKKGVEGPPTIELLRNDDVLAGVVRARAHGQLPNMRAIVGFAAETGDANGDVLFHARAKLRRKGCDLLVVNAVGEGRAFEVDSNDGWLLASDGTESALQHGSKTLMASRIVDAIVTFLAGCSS
UniProt P9WFT3, whole entry: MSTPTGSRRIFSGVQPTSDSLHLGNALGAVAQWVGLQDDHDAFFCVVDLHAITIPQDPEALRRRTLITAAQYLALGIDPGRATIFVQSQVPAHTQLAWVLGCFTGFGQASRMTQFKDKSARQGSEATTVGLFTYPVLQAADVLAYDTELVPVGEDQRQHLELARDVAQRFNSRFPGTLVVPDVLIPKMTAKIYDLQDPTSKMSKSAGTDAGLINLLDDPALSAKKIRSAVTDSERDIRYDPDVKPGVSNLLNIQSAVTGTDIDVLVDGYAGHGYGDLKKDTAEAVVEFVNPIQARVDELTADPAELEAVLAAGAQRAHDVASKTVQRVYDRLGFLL

The values are deposited in ChEMBL (CHEMBL3988442, “University of Dundee, Small-Polar-MMV Screening Library” (2021)).

Values are the deposited “Percent Effect”, in %.
The controls that fix the scale are not given in the record; negative values are as filed.
This is an unselected part of the compounds tested.
Two or more numbers in one place are separate tests of the same structure; such repeats can differ widely.
A dash means the value is not listed here; it may have been measured.

A: 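Polyketide synthase Pks13, Mycobacterium tuberculosis (UniProt I6X8D2). Enzyme assay of the thioesterase domain of polyketide synthase 13; the read-out is not stated. Concentration: 30 µM. The record gives no direction; the compounds picked for IC50 retests had high values, so higher reads as stronger inhibition. Size under these conditions: about 67,000 compounds, about 300 of them at 50% or above in at least one test.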
B: 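Coenzyme A biosynthesis protein CoaBC, Mycobacterium tuberculosis (UniProt P9WNZ1). Enzyme assay of CoaBC with a phosphate dye (Biomol Green) read at 650 nm. Tested at 30 µM. Direction is inferred from only a few compounds that gave an IC50; most scored high, so higher reads as stronger inhibition. Most strong results did not repeat in a second test. Size under these conditions: about 67,000 compounds, about 40 of them at 50% or above in at least one test.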
C: 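Cell assay of Leishmania donovani living inside macrophages; the read-out is not stated. Compounds at 30 µM. The record gives no direction; compounds that gave an IC50 in retests scored well above the rest, so higher reads as stronger inhibition. Size under these conditions: about 69,000 compounds, about 1,000 of them at 50% or above in at least one test.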
D: 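Tryptophan-tRNA ligase, Mycobacterium tuberculosis (UniProt P9WFT3). Enzyme assay of tryptophanyl-tRNA synthetase; the read-out is not stated. Concentration: 10 µM. Higher most likely means stronger inhibition; the record gives no direction and few retests gave an IC50. Of about 65,000 compounds tested this way, about 64 (0.098%) reached 50% or more in at least one test.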

Compound	A	B	C	D
CC(C)CN1CCCC(c2nc(O)c3cc(F)ccc3n2)C1 (centres unmarked)	-5.7%	2.105%	-2.608%	-1.988%
COc1ccc(-c2cc3nc(CCNC(=O)CN(C)C)nn3cn2)cc1	3.104%	-2.663%	19.57%	-8.029%
Cc1cccc(-n2c(C)cc(C(=O)N3CCn4c(C)nnc4C3)c2C)c1	-2.767%	5.175%	41.09%	6.14%
[H][C@@]12COC[C@]1(CNS(C)(=O)=O)CN(C(=O)c1cnccn1)C2	-	-	-2.924% and -0.5508%	-
O=C(NCCc1ccccn1)N1CCSC2(CCCCC2)C1	-22.65%	0.9828%	4.445%	0.8974%
[H][C@@]12CN(C(C)=O)CCO[C@]1([H])CN(S(=O)(=O)C1CC1)C2	-	-	8.517%	-
Cc1nc(C)c(C(C)NCc2c(C)nn(C)c2N(C)C)s1 (centres unmarked)	-4.928%	6.198%	6.653%	3.114%
CCOc1cccc(NC(=O)c2cnc(C)cn2)n1	-1.324%	3.471%	1.217%	-0.2937%
O=C(NCCCNc1ccc(C(F)(F)F)cn1)c1ccc(F)cc1Br	7.909%	2.872%	45.44%	-3.386%
[H][C@@]12COC[C@]1(CNS(C)(=O)=O)CN(C(=O)C1CC=CC1)C2	-	-	9.66%	-
O=C(O)C(F)(F)F.[H][C@@]12OCCN(C(=O)c3ccoc3C)[C@@]1([H])CC[C@H]2OCc1ccccn1	-	-	15.26%	-
CSCCC(C)NC(=O)c1cccc(-c2n[nH]c(C)n2)c1 (centres unmarked)	-2.611%	5.165%	-32.68%	-11.96%
Cc1ccc(CNC(C)c2ccc(N3CCN(C)CC3)c(F)c2)o1 (centres unmarked)	-17.83%	-20.32%	-	-2.285%
CCc1nnc2n1CCN(C(=O)c1cc3ccc(F)cc3nc1C)C2	-9.81%	-0.7229%	10.24%	1.839%
CC(NC(=O)NCc1cc[nH]n1)c1ccc2c(c1)CCC(=O)N2 (centres unmarked)	-6.723%	0%	38.23%	-0.7194%
COC(=O)c1ccn(CC(=O)Nc2nn(CC3CC3)c3ccccc23)n1	-17.02%	13.65%	21.22%	4.486%
Cc1cnn(CC2CCCN2C(=O)c2ccc(Cl)cc2F)c1 (centres unmarked)	-16.56%	0.8043%	7.958%	-2.101%
COCCC(=O)N1Cc2[nH]nc(COc3cccnc3)c2C1	-37.34%	0.6316%	-8.262% and -6.09%	-0.7171%
CC(C)(C)c1nnnn1CC(=O)N(CCC#N)c1ccccc1	-26.06%	1.263%	-10.29%	-2.031%
COc1cccc(OC2CN(C(=O)Cn3nc4ccccc4n3)C2)c1	17%	-0.9901%	17.43%	-2.144%
CC(C)n1cnc2c1C(C(=O)N1CCCC1)N(CC1CC1)CC2 (centres unmarked)	-31.78%	-5.533%	-	-2.013%
CCn1ccnc1C1CCN(Cc2cccc(C)n2)CC1	-4.039%	-2.317%	35.09%	4.636%
CN(C)c1ncc2c(n1)C1(CCN(Cc3cccnc3)C1)COC2 (centres unmarked)	-30.21%	14.34%	34.52%	-1.144%
COc1ccnc(CNc2cc(C3CC3)ncn2)c1	-	4.177%	19.46%	-8.439%
[H][C@]12CC[C@]([H])(CN(Cc3nnc(-c4ccccc4)o3)C1)N(CC1CCC1)C2	-	-	-21.64%	-
O=S(=O)(c1cccnc1)N1CCN(CC(O)c2ccccc2)CC1 (centres unmarked)	3.754%	0.9828%	1.998%	5.128%
COc1ccccc1CC(C)CC(=O)NS(=O)(=O)C(C)C (centres unmarked)	4.428%	-14.32%	63.27%	-0.0809%
CNC(=O)[C@H]1C[C@@H]2CN(S(=O)(=O)c3ccc(C)cc3)C[C@@H]2N1C	-30.83%	1.629%	-	-0.9764%
[H][C@@]12CN(CC)C[C@]1(C(=O)NCC1CC1)CCCN2c1ncccn1	-	-	18.31%	-
O=C(CCc1ccccn1)NC1CCCN(C2Cc3ccccc3C2)C1 (centres unmarked)	-31.16%	1.107%	22.23%	0.9226%
Cc1ccc(CN2CCC3(CCN(c4cnn(C)c4)C3=O)C2)s1.O=C(O)C(F)(F)F (centres unmarked)	-	-	22.58%	-
CCC(NC(=O)c1ccoc1)c1ccccc1OCC(=O)N1CCCC1 (centres unmarked)	-44.6%	-0.2632%	22.55%	-2.941%
OCc1cc2ccccc2nc1NCC1(O)CCC1	2.15%	0.4963%	17.26%	0.06345%
Cn1cc(CN2CC[C@@H]3[C@@H]2CCN3Cc2ccc3c(c2)OCO3)cn1	-41.16%	4.326%	-	-3.314%
CCCc1nc(CN2CCCC2Cn2cncn2)cs1 (centres unmarked)	-34.41%	0.7712%	41.37%	-2.911%
CCN(CC(=O)Nc1c(C)n[nH]c1C)CC(O)c1ccc(C)cc1 (centres unmarked)	4.314%	6.112%	6.444%	13.11%
O=C1CC2(CCN(Cc3ccc(C(F)(F)F)nc3)CC2)CN1	-16.56%	4.701%	-7.133%	4.64%
Cl.O=C(Nc1ccccc1)C1=NOC2(CCNCC2)C1	-	-	11.97%	-
O=C(Nc1ccc(-n2cccn2)c(F)c1)C1CCN(C(=O)C2CC2)CC1	-34.31%	-2.355%	14.12%	3.964%
COC(=O)CC(NC(=O)c1cccc(CS(C)(=O)=O)c1)c1cccs1 (centres unmarked)	-4.458%	-2.419%	-5.796%	-4.47%

Some entries from above, unchanged:

Compound,A,B,C,D
COc1ccc(-c2cc3nc(CCNC(=O)CN(C)C)nn3cn2)cc1,3.104%,-2.663%,19.57%,-8.029%
CCCc1nc(CN2CCCC2Cn2cncn2)cs1 (centres unmarked),-34.41%,0.7712%,41.37%,-2.911%
O=C(NCCCNc1ccc(C(F)(F)F)cn1)c1ccc(F)cc1Br,7.909%,2.872%,45.44%,-3.386%
O=C1CC2(CCN(Cc3ccc(C(F)(F)F)nc3)CC2)CN1,-16.56%,4.701%,-7.133%,4.64%
COCCC(=O)N1Cc2[nH]nc(COc3cccnc3)c2C1,-37.34%,0.6316%,-8.262% and -6.09%,-0.7171%